The filed quantity is “Percent Effect” (%). The controls that fix the scale are not given in the record; negative values are as filed. This is an unselected part of the compounds tested.

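Whole-parasite assay of Trypanosoma brucei over 72 hours; the read-out is not stated. Tested at 30 µM. Direction is inferred from retests: higher values go with stronger inhibition. Values scatter widely below zero; nearly all retest evidence comes from the higher of the two concentrations used. Of about 64,000 compounds tested this way, about 940 (1.5%) reached 50% or more in at least one test.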

| SMILES | effect |
|---|---|
| `CCn1c(C2CCCN(Cc3cccc4cnccc34)C2)nn(C)c1=O` (centres unmarked) | -28.22 |
| `CCc1ccc(CN2CCN(c3ccc(C(N)=O)cn3)CC2)nc1` | 0.1359 |
| `COCC(=O)NCC1Cn2nnc(-c3ccoc3)c2CO1` (centres unmarked) | -55.02 |
| `COCC(=O)N1Cc2nccn2CC(CN(C)Cc2cccnc2)C1` (centres unmarked) | -6.271 |
| `[H][C@@]12C[C@H](C(=O)N3CCOCC3)[C@@]([H])(CN(S(=O)(=O)CC(C)C)C1)O2` | -39.74 |
| `CC(C)c1nnc(NC(=O)Cc2csc(-c3nnc[nH]3)n2)s1` | -102.7 |
| `Nc1nc2c(c(NCc3nccs3)n1)CCN(CC1CCCC1)CC2` | -30.82 |
| `CC1N(CC2CC2)C(=O)COC12CCN(C(=O)c1ccno1)CC2` (centres unmarked) | -79.55 |
| `O=S(=O)(Nc1ccccn1)c1cc(Cl)cc2c1OCC2` | -35.66 |
| `O=C(c1ccc(F)c(F)c1)N1CCCC1CN1CCCC1` (centres unmarked) | -26.45 |
| `O=C(c1cccnc1-n1cncn1)N1CCN(c2ccccc2)CC1` | -41.48 |
| `Cn1ccc2c(-c3cc(N4CCOCC4)ncn3)ccnc21` | -20.01 |
| `COc1ccc(CCN(C)C(=O)CN2C(=O)OC[C@@H]2C(C)C)cc1OC` | -43.78 |
| `Cc1cc(-c2ccccc2C(=O)O)nc(C2CCCN(C(C)C)C2)n1` (centres unmarked) | -11.18 |
| `COCCC(=O)N1CCC2(CCCN(Cc3cc(OC)ccc3F)C2)C1` (centres unmarked) | -37.75 |
| `COc1ccc(CN(C)[C@@H]2CN(C(=O)c3cnn(C)c3)C[C@H]2O)cc1` | 4.233 |
| `O=C(NCCc1ccccn1)C1(n2cnnn2)CCCCC1` | -21.45 |
| `CN(Cc1noc(C2CC2)n1)C1CCN(CCn2cccn2)C1` (centres unmarked) | -51.77 |
| `Cc1cc(C)n(CC(=O)N2CCCCC2CCN(C)C)c(=O)n1` (centres unmarked) | -24.83 |
| `Cc1cccc(-n2ncc(C(=O)NCC3CCS(=O)(=O)C3)c2C)c1` (centres unmarked) | 10.62 |
| `O=C(O)c1cn(CC2CCCN(c3ccc4ccccc4n3)C2)nn1` (centres unmarked) | -6.628 |
| `CCC(=O)c1ccc(OCC(=O)NC(C)c2nnc(C)[nH]2)cc1` (centres unmarked) | -14.35 |
| `CCN(CC)C(=O)Cc1csc(C(C)C)n1` | -85.89 |
| `COCCCN1CC2(CCCN(CCn3cc(Cl)cn3)C2)CCC1=O` (centres unmarked) | -38.53 |
| `C=C(Cl)CN1CCC(C(=O)c2cc(F)ccc2F)CC1` | -9.921 |
| `Cc1nc(CN)cc(NCc2ccccc2-n2cncn2)n1` | -4.837 |
| `O=C(CC(F)(F)F)NC(c1ccc(Cl)cc1)c1ncon1` (centres unmarked) | -24 |
| `O=C(NCC1CC1)c1cc2c(s1)CCN2C(=O)c1ccc(F)cc1` | 14.5 |
| `CC(C)(C)NC(=O)C1CCCCN1Cc1nccn1CC(F)(F)F` (centres unmarked) | -32.63 |
| `COc1cccc(C(=O)NS(=O)(=O)c2cccc(C#N)c2)c1OC` | 12.69 |
| `COc1ccc(C(=O)NS(=O)(=O)c2cc(Cl)sc2Cl)cc1OC(F)F` | 10.06 |
| `CC(C)c1noc(CN(CCC2CCCCC2)CC(N)=O)n1` | -41.6 |
| `CC(=O)c1ccc(Cl)c(Cl)c1OCC(=O)NCC(F)(F)F` | -18 |
| `CCOc1ncccc1NC(=O)NCC(O)c1ccccc1OC` (centres unmarked) | -6.894 |
| `[H][C@]12CCC[C@@]1(CO)CN(C(=O)c1cc(C)nc3cc(F)ccc13)C2` | -44.71 |
| `CCc1noc(CN(Cc2ccc3c(c2)OCO3)C2CCCC2)n1` | -1.453 |
| `CCc1nnc2n1CCN(CCS(=O)(=O)c1ccccc1)C2` | 7.635 |
| `Cc1cccc(C(C(=O)NC(C)(C)CN2CCCC2)N(C)C)c1` (centres unmarked) | -2.17 |
| `CCOc1ccc(CC(CNC(=O)c2ccoc2C)C(N)=O)cc1` (centres unmarked) | 16.25 |
| `[H][C@]12CC[C@]([H])(CN(S(C)(=O)=O)C1)N(CCC(=O)NCc1ccco1)C2` | -23.24 |
| `CCNc1ccnc(N2CCCC(CCOC)(C(=O)O)C2)n1` (centres unmarked) | -21.58 |
| `CC(=O)Cn1c(C)cc(=O)c2cc(F)ccc21` | 15.02 |
| `Cc1ccc(S(=O)(=O)Nc2ccc(=O)n(C)c2)c(Br)c1` | -36.73 |
| `Cc1ccc(Oc2ncccc2C(=O)O)c(C)c1` | -1.706 |
| `c1ccc2c(c1)CCC21CN(CCc2ccncc2)CCO1` (centres unmarked) | -25.45 |
| `O=C(O)c1csc(S(=O)(=O)N2CCN(Cc3c(F)cccc3Cl)CC2)c1` | -33.32 |
| `Cc1ccc(NC2CCN(C(=O)c3cnc(C)s3)CC2)nn1` | 12.23 |
| `CCNC(=O)NC(C)c1nc(-c2ccc(Br)cc2)no1` (centres unmarked) | 3.966 |
| `CC(=O)Nc1ccc(SCCCC(=O)NCC2CCCO2)nn1` (centres unmarked) | 1.481 |
| `Cc1ncsc1C(=O)NCCNc1cnccn1` | -11.02 |
| `COc1nc(C)c(C(=O)N2CCC(C(O)Cc3ccccc3)CC2)s1` (centres unmarked) | -11.93 |
| `CN1C(=O)CC(N(C)Cc2nc3ccccc3c(=O)[nH]2)C1=O` (centres unmarked) | -17.05 |
| `O=C(NCCCNc1cccnc1)c1ccc2nccn2c1` | -40.05 |
| `Cc1cc(N(C)C)nc(NCCn2cccn2)n1` | 5.326 |

Some entries from above, unchanged:

Result for CCc1noc(CN(Cc2ccc3c(c2)OCO3)C2CCCC2)n1 was -1.453%.
Result for CCOc1ccc(CC(CNC(=O)c2ccoc2C)C(N)=O)cc1 (centres unmarked) was 16.25%.
Result for O=C(CC(F)(F)F)NC(c1ccc(Cl)cc1)c1ncon1 (centres unmarked) was -24%.
Result for CC(C)c1noc(CN(CCC2CCCCC2)CC(N)=O)n1 was -41.6%.
Result for O=C(O)c1csc(S(=O)(=O)N2CCN(Cc3c(F)cccc3Cl)CC2)c1 was -33.32%.
Result for CC(C)(C)NC(=O)C1CCCCN1Cc1nccn1CC(F)(F)F (centres unmarked) was -32.63%.

Data taken from ChEMBL document CHEMBL3988442, “University of Dundee, Small-Polar-MMV Screening Library” (2021).